The target in this assay is T1, E. coli TatC with C-terminal Twin-Strep tag, expressed from a tatABC plasmid (Escherichia coli) (UniProt P69423).
T1 sequence: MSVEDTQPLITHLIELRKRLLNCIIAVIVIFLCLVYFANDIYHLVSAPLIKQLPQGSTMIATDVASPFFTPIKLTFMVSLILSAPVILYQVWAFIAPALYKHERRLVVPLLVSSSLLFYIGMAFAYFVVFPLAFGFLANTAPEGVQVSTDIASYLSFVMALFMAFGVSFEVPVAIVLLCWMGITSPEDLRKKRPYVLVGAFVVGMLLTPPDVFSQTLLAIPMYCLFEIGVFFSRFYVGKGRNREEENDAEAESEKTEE
Nature of the assay: cryo-EM structure; complex assembled in vitro: Ulp1-cut His6-SUMO-MdoD or -CueO mixed with purified E. coli TatBC or TatABC complex overnight at 4 °C, SEC in 50 mM Tris pH 8.0, 200 mM NaCl, 1 mM EDTA, 0.02% GDN; excess substrate; both purified.

Chains of the proteins cited; added tags and fusions are not shown. Lines headed by an entry give the natural chain unless they say otherwise; changes in a name come on top.
UniProt P40120: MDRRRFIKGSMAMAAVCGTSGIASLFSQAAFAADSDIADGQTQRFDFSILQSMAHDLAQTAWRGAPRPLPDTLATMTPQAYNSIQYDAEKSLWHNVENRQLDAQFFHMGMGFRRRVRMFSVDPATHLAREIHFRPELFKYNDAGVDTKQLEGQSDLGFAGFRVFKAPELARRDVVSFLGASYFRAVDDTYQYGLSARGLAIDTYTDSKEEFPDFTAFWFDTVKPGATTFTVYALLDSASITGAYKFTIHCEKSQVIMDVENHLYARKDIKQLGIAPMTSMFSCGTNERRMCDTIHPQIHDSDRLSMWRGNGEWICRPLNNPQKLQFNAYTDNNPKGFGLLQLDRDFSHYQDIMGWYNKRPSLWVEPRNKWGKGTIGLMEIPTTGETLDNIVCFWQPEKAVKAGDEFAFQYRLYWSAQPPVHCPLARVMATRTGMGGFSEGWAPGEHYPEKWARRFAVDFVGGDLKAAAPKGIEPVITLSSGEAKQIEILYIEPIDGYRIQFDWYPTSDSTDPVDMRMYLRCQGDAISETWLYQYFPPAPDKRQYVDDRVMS

Results are given in words; binding and its absence hold for the method and conditions named. Binding calls can cover weak binding; strength is not graded here. Tags and fused reporters may be left off the sequences shown.

On to “E. coli MdoD, full length with its Tat signal peptide (from UniProt P40120)”, for which the binding entry is “binds”.
